Measured values published in PMC11835494.

Experiments:
Test in all cases: EMSA
RPA trimer = settings: EMSA buffer; M13 agarose gel shifts without ATP; recombinant protein; label: Cy5 at RNA 3' end; DNA:RNA hybrid
HELQ (human) = biological target: T1, HELQ (human) (UniProt Q8TDG4); settings: no RPA; EMSA buffer; M13 agarose gel shifts without ATP; recombinant protein; label: Cy5 at RNA 3' end; DNA:RNA hybrid
T1 sequence (looked up, limits assumed): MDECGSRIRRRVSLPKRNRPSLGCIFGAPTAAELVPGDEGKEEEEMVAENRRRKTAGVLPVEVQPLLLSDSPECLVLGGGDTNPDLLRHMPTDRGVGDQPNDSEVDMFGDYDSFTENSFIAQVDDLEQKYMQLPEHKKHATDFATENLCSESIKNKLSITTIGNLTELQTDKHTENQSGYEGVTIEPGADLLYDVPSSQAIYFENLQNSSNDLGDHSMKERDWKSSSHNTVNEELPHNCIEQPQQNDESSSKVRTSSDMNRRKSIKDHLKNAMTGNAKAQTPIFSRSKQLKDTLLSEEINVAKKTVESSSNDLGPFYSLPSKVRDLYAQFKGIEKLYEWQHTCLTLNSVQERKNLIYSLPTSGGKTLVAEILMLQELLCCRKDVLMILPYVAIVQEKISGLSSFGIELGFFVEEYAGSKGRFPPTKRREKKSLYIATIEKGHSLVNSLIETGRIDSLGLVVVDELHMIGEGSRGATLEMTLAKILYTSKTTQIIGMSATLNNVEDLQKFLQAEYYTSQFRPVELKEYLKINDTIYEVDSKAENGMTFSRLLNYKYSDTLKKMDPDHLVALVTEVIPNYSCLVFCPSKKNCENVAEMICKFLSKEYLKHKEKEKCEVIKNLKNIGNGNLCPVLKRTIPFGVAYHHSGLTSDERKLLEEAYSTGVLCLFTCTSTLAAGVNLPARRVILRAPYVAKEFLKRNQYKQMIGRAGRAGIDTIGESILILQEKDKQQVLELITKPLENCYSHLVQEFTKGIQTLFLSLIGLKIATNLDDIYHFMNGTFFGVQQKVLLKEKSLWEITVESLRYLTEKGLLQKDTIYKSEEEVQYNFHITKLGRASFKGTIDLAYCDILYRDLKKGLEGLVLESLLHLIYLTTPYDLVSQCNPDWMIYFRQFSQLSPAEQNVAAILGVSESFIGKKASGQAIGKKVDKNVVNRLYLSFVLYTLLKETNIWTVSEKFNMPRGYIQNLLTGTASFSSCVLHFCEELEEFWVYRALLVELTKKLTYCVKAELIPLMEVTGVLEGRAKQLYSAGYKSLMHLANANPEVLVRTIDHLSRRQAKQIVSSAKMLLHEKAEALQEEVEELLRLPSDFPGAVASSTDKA

HELQ + RPA trimer = settings: HELQ plus RPA; EMSA buffer; M13 agarose gel shifts without ATP; recombinant protein; label: Cy5 at RNA 3' end; DNA:RNA hybrid

**Q.** Does “GGGTGAACCTGCAGGTGGGCGGCTGCTCATCGTAGGTTAGTTGGTAGAATTCGGCAGCGTC / GACGCTGCCGAATTCTACCAGTGCCTTGCTAGGACATCTTTGCCCACCTGCAGGTTCACCC / AAAGAUGUCCUAGCAAGGCAC [small synthetic R-loop (RL)]” bind (RPA trimer)?
**A.** binds

**Q.** Does “GGGTGAACCTGCAGGTGGGCGGCTGCTCATCGTAGGTTAGTTGGTAGAATTCGGCAGCGTC / GACGCTGCCGAATTCTACCAGTGCCTTGCTAGGACATCTTTGCCCACCTGCAGGTTCACCC / AAAGAUGUCCUAGCAAGGCAC [small synthetic R-loop (RL)]” bind (HELQ (human))?
**A.** no binding

**Q.** Does “GGGTGAACCTGCAGGTGGGCGGCTGCTCATCGTAGGTTAGTTGGTAGAATTCGGCAGCGTC / GACGCTGCCGAATTCTACCAGTGCCTTGCTAGGACATCTTTGCCCACCTGCAGGTTCACCC / AAAGAUGUCCUAGCAAGGCAC [small synthetic R-loop (RL)]” bind (HELQ + RPA trimer)?
**A.** binds

The exact form of at least one protein or probe is not confirmed. For part of these data: No signal at the amounts used counts as a negative. For part of these data: Where a protein sequence is shown, tags need not be part of it.
